Data taken from article PMC6873584.
No constants are given. Whether binding was seen depends on the method and setting. Binding seen in cells or lysates may run through a third protein. Some entries that bind do so weakly or less than the wild type.

Chains of the proteins cited; added tags and fusions are not shown.
UniProt P40763: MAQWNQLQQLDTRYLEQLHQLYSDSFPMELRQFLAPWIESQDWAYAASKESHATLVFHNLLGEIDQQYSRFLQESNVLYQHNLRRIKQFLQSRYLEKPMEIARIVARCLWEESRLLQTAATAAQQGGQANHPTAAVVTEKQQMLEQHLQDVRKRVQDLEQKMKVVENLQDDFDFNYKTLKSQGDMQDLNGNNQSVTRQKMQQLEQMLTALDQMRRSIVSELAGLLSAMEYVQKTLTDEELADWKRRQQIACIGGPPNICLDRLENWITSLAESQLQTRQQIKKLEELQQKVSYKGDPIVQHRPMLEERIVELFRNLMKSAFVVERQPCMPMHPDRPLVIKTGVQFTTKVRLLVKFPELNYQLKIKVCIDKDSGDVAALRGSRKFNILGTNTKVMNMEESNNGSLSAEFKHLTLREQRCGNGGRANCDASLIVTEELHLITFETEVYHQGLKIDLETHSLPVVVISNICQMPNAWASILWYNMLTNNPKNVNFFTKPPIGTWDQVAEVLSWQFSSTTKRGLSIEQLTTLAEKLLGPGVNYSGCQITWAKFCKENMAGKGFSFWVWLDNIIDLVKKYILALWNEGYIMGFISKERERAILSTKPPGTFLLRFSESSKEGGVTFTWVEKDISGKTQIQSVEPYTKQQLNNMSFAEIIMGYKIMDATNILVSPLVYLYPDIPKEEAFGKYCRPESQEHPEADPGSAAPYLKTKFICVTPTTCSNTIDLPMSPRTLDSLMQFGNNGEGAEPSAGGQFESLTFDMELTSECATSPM

Target: STAT3 (human (endogenous in Bel-7404)) (UniProt P40763)
Assay: co-IP; total lysates from Bel-7404 cells, immunoprecipitation with STAT3 antibody, western blotting with PRRX1 antibody; lysis buffer 50 mM HEPES pH 7.5, 150 mM NaCl, 1 mM EDTA, 0.5% Nonidet P-40

binding: binds
Substance: paired related homeobox 1 (Prrx1) (from UniProt P54821-1 1-245)
